For 2 molecules, binding results are on record in PMC8437952.

Sequences of proteins named here, by UniProt entry; tags and fusion partners are left off.
UniProt Q96CV9: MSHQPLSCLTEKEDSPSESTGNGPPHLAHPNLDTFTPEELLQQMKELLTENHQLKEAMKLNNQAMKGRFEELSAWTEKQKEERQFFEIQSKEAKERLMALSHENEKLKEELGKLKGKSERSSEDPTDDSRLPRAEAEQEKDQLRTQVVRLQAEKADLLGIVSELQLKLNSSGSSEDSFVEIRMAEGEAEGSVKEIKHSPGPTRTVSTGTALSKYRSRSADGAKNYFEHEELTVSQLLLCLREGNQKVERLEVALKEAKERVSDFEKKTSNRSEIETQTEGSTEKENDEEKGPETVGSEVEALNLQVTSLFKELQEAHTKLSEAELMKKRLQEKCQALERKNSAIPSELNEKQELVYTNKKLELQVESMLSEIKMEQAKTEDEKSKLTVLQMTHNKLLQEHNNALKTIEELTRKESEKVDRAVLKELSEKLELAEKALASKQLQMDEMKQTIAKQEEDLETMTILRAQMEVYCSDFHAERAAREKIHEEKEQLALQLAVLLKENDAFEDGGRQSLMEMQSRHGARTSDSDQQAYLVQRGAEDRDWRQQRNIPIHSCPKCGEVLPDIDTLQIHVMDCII
UniProt P06492: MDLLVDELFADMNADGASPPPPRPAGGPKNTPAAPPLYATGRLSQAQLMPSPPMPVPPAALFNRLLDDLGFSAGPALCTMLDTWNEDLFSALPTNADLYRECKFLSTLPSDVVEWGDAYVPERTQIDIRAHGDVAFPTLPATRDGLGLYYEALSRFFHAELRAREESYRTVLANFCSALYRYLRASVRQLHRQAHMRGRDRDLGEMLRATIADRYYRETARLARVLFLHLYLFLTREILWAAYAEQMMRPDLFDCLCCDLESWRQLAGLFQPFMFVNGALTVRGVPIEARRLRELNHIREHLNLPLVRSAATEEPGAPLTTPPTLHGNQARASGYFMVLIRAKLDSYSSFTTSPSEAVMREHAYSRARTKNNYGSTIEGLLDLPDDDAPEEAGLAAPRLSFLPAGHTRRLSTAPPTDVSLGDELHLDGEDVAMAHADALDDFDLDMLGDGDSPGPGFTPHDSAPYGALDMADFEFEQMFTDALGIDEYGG

For this experiment, the target named is FLAG-OPTN (Optineurin) (UniProt Q96CV9). Nature of the experiment: co-IP; anti-FLAG (M2) immunoprecipitation from lysates of Optn+/+ HeLa cells expressing FLAG-OPTN and infected with HSV-1 at 1 MOI, sampled over time of infection; IP buffer 250 mM NaCl, 50 mM Tris, 0.5 mM EDTA, 0.5% NP-40; protein A/G beads, 4 °C overnight; immunoblot. (A western blot detects proteins with antibodies after separation by electrophoresis.)

No constants are given. Whether binding was seen depends on the method and setting. In cells and extracts the contact can be indirect. Some binding calls cover weakened binding; strength is not graded here.

“HSV-1 tegument protein VP16 (from UniProt P06492 1-490)”: the binding result is “binds”.

B1: TANK binding kinase 1 (TBK1) (enzyme, UniProt Q9UHD2 1-729)
chain: MQSTSNHLWLLSDILGQGATANVFRGRHKKTGDLFAIKVFNNISFLRPVDVQMREFEVLKKLNHKNIVKLFAIEEETTTRHKVLIMEFCPCGSLYTVLEEPSNAYGLPESEFLIVLRDVVGGMNHLRENGIVHRDIKPGNIMRVIGEDGQSVYKLTDFGAARELEDDEQFVSLYGTEEYLHPDMYERAVLRKDHQKKYGATVDLWSIGVTFYHAATGSLPFRPFEGPRRNKEVMYKIITGKPSGAISGVQKAENGPIDWSGDMPVSCSLSRGLQVLLTPVLANILEADQEKCWGFDQFFAETSDILHRMVIHVFSLQQMTAHKIYIHSYNTATIFHELVYKQTKIISSNQELIYEGRRLVLEPGRLAQHFPKTTEENPIFVVSREPLNTIGLIYEKISLPKVHPRYDLDGDASMAKAITGVVCYACRIASTLLLYQELMRKGIRWLIELIKDDYNETVHKKTEVVITLDFCIRNIEKTVKVYEKLMKINLEAAELGEISDIHTKLLRLSSSQGTIETSLQDIDSRLSPGGSLADAWAHQEGTHPKDRNVEKLQVLLNCMTEIYYQFKKDKAERRLAYNEEQIHKFDKQKLYYHATKAMTHFTDECVKKYEAFLNKSEEWIRKMLHLRKQLLSLTNQCFDIEEEVSKYQEYTNELQETLPQKMFTASSGIKHTMTPIYPSSNTLVEMTLGMKKLKEEMEGVVKELAENNHILERFGSLTMDGGLRNVDCL
For B1, the binding result is given as “binds”.
